PubChem BioAssay AID1259405 – NCATS – 2018
Shown is an unselected part of about 50,000 reagents tested. In the full data, about 4,000 (8%) were called active. 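Mouse siRNA library applied to hamster cells; one well for each siRNA.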 The numbers tell different reagents against one gene apart. No sequences are given here.

- Test: 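Mouse-designed siRNAs used to find CHO productivity engineering targets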 (primary screen)
- Cells: Chinese hamster CHO-K1 ovary cells with stable secreted eGFP expression
- Reagent: single siRNA against mouse genes, 0.8 pmol siRNA per well (2 µl of 400 nM stock)
- Timing: 3 days
- Detection: 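Percent of the per-plate non-targeting control median for intracellular GFP per well by laser scanning cytometry and for cell viability by ATP luminescence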
- Direction: GFP, % of control: higher = more GFP per well, higher productivity; viability (ATP), % of control: higher = more viable cells (more ATP)
- Hit rule: 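Called active when intracellular GFP, relative to negative control, is at or above 120%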

Gene	siRNA no.	GFP, % of control	viability (ATP), % of control	outcome
Eif4h (eukaryotic translation initiation factor 4H)	1	88.5	112	inactive
Eif4h (eukaryotic translation initiation factor 4H)	2	69	78.9	inactive
Hsd17b7 (hydroxysteroid (17-beta) dehydrogenase 7)	1	81.8	83	inactive
Hsd17b7 (hydroxysteroid (17-beta) dehydrogenase 7)	2	50.8	76.1	inactive
Hsd17b7 (hydroxysteroid (17-beta) dehydrogenase 7)	3	65.3	83	inactive
Lyn (Lyn proto-oncogene, Src family tyrosine kinase)	1	75.6	42.7	inactive
Zcchc8 (zinc finger, CCHC domain containing 8)	1	61.6	73.9	inactive
Zcchc8 (zinc finger, CCHC domain containing 8)	2	95.1	85.9	inactive
Zcchc8 (zinc finger, CCHC domain containing 8)	3	88.2	99.2	inactive
Pak5 (p21 (RAC1) activated kinase 5)	1	80.6	69.6	inactive
Wdr70 (WD repeat domain 70)	1	66.9	82.1	inactive
Wdr70 (WD repeat domain 70)	2	60.3	66.6	inactive
Wdr70 (WD repeat domain 70)	3	83.3	83.7	inactive
Bex1 (brain expressed X-linked 1)	1	103	74.7	inactive
Bex1 (brain expressed X-linked 1)	2	53	53.6	inactive
Bex1 (brain expressed X-linked 1)	3	69.9	90.4	inactive
Ppp1r14c (protein phosphatase 1, regulatory inhibitor subunit 14C)	1	63.2	83	inactive
Ppp1r14c (protein phosphatase 1, regulatory inhibitor subunit 14C)	2	99.8	77.6	inactive
Ppp1r14c (protein phosphatase 1, regulatory inhibitor subunit 14C)	3	107	91	inactive
Gbp2 (guanylate binding protein 2)	1	100	88	inactive
Gbp2 (guanylate binding protein 2)	2	42.5	52.6	inactive
Gbp2 (guanylate binding protein 2)	3	66.5	69.8	inactive
Exoc2 (exocyst complex component 2)	1	40.9	51.4	inactive
Exoc2 (exocyst complex component 2)	2	50.9	76.3	inactive
Exoc2 (exocyst complex component 2)	3	50	63.7	inactive
Ric1 (RAB6A GEF complex partner 1)	1	48.7	69	inactive
Ric1 (RAB6A GEF complex partner 1)	2	52.5	72.8	inactive
Ric1 (RAB6A GEF complex partner 1)	3	131	145	active
Fmc1 (formation of mitochondrial complex V assembly factor 1)	1	82.4	71.5	inactive
Fmc1 (formation of mitochondrial complex V assembly factor 1)	2	105	103	inactive
Fmc1 (formation of mitochondrial complex V assembly factor 1)	3	114	111	inactive
Nrxn3 (neurexin III)	1	65.2	90	inactive
Nrxn3 (neurexin III)	2	104	103	inactive
Nrxn3 (neurexin III)	3	101	98.1	inactive
Pbld2 (phenazine biosynthesis-like protein domain containing 2)	1	58.3	62	inactive
Pbld2 (phenazine biosynthesis-like protein domain containing 2)	2	70.9	70.2	inactive
Pbld2 (phenazine biosynthesis-like protein domain containing 2)	3	113	123	inactive
Hdhd3 (haloacid dehalogenase-like hydrolase domain containing 3)	1	69.8	73.9	inactive
Hdhd3 (haloacid dehalogenase-like hydrolase domain containing 3)	2	83.1	63.3	inactive
Hdhd3 (haloacid dehalogenase-like hydrolase domain containing 3)	3	38.3	53.2	inactive

The list goes on (7 carried over from the part before).
Gene	siRNA no.	GFP, % of control	viability (ATP), % of control	outcome
Nrxn3 (neurexin III)	3	101	98.1	inactive
Pbld2 (phenazine biosynthesis-like protein domain containing 2)	1	58.3	62	inactive
Pbld2 (phenazine biosynthesis-like protein domain containing 2)	2	70.9	70.2	inactive
Pbld2 (phenazine biosynthesis-like protein domain containing 2)	3	113	123	inactive
Hdhd3 (haloacid dehalogenase-like hydrolase domain containing 3)	1	69.8	73.9	inactive
Hdhd3 (haloacid dehalogenase-like hydrolase domain containing 3)	2	83.1	63.3	inactive
Hdhd3 (haloacid dehalogenase-like hydrolase domain containing 3)	3	38.3	53.2	inactive
Lrg1 (leucine-rich alpha-2-glycoprotein 1)	1	104	51.7	inactive
Lrg1 (leucine-rich alpha-2-glycoprotein 1)	2	55.7	72.5	inactive
Lrg1 (leucine-rich alpha-2-glycoprotein 1)	3	78.9	78	inactive
Ly6g6d (lymphocyte antigen 6 family member G6D)	1	93.6	76.3	inactive
Ly6g6d (lymphocyte antigen 6 family member G6D)	2	84.8	97.2	inactive
Ly6g6d (lymphocyte antigen 6 family member G6D)	3	98.7	82.7	inactive
Plaat5 (phospholipase A and acyltransferase 5)	1	49.2	56.3	inactive
Plaat5 (phospholipase A and acyltransferase 5)	2	56	50.5	inactive
Plaat5 (phospholipase A and acyltransferase 5)	3	76.7	85.4	inactive
Otc (ornithine transcarbamylase)	1	42.2	52.2	inactive
Otc (ornithine transcarbamylase)	2	89.7	62.8	inactive
4930542C12Rik (RIKEN cDNA 4930542C12 gene)	1	73.4	64	inactive
4930542C12Rik (RIKEN cDNA 4930542C12 gene)	2	56.9	63.9	inactive
4930542C12Rik (RIKEN cDNA 4930542C12 gene)	3	97.7	86.9	inactive
Il18bp (interleukin 18 binding protein)	1	65.4	88.4	inactive
Il18bp (interleukin 18 binding protein)	2	35.7	29.3	inactive
Il18bp (interleukin 18 binding protein)	3	41	86.9	inactive
Poli (polymerase (DNA directed), iota)	1	155	147	active
Poli (polymerase (DNA directed), iota)	2	53.1	49.5	inactive
Nherf4 (NHERF family PDZ scaffold protein 4)	1	46.6	55.2	inactive
Nherf4 (NHERF family PDZ scaffold protein 4)	2	142	45.1	active
Nherf4 (NHERF family PDZ scaffold protein 4)	3	53.8	128	inactive
Strm (striamin)	1	63.2	67.6	inactive
Strm (striamin)	2	71.9	71.9	inactive
Strm (striamin)	3	126	105	active
Avpr1b (arginine vasopressin receptor 1B)	1	121	59.4	active
Avpr1b (arginine vasopressin receptor 1B)	2	82.4	66.4	inactive
Avpr1b (arginine vasopressin receptor 1B)	3	57.7	69.9	inactive
Trim3 (tripartite motif-containing 3)	1	61.6	59.3	inactive
Trim3 (tripartite motif-containing 3)	2	154	103	active
Trim3 (tripartite motif-containing 3)	3	84.6	114	inactive
Trim9 (tripartite motif-containing 9)	1	57.7	49.6	inactive
Trim9 (tripartite motif-containing 9)	2	30.1	56.9	inactive
Trim9 (tripartite motif-containing 9)	3	88.9	75.1	inactive
Ensa (endosulfine alpha)	1	80.3	92.7	inactive
Ensa (endosulfine alpha)	2	68.9	51.4	inactive
Ensa (endosulfine alpha)	3	70.5	72.5	inactive
Rab3il1 (RAB3A interacting protein (rabin3)-like 1)	1	124	96.8	active
Rab3il1 (RAB3A interacting protein (rabin3)-like 1)	2	71.4	88.4	inactive
Rab3il1 (RAB3A interacting protein (rabin3)-like 1)	3	93.7	74.4	inactive
Setd7 (SET domain containing (lysine methyltransferase) 7)	1	134	85.5	active
Setd7 (SET domain containing (lysine methyltransferase) 7)	2	61	83.7	inactive
Setd7 (SET domain containing (lysine methyltransferase) 7)	3	58.3	67.8	inactive
Elmo3 (engulfment and cell motility 3)	1	41.7	32	inactive
Elmo3 (engulfment and cell motility 3)	2	69.3	86.9	inactive
Elmo3 (engulfment and cell motility 3)	3	60.2	54	inactive
Pam (peptidylglycine alpha-amidating monooxygenase)	1	68.1	85.2	inactive
Pam (peptidylglycine alpha-amidating monooxygenase)	2	105	79	inactive
Pam (peptidylglycine alpha-amidating monooxygenase)	3	85.7	83.7	inactive
Ppif (peptidylprolyl isomerase F (cyclophilin F))	1	25.5	44.4	inactive
Ppif (peptidylprolyl isomerase F (cyclophilin F))	2	78	71.8	inactive
Ppif (peptidylprolyl isomerase F (cyclophilin F))	3	96	73.2	inactive
Gngt1	1	78.9	74.6	inactive
Gngt1	2	142	77	active
Gngt1	3	81.2	47.5	inactive
Golt1a (golgi transport 1A)	1	110	111	inactive
Golt1a (golgi transport 1A)	2	92.3	95.4	inactive
Golt1a (golgi transport 1A)	3	97.4	73.6	inactive
Ciapin1 (cytokine induced apoptosis inhibitor 1)	1	86.9	85	inactive
Ciapin1 (cytokine induced apoptosis inhibitor 1)	2	86.6	67.1	inactive
Ciapin1 (cytokine induced apoptosis inhibitor 1)	3	102	97.9	inactive
Spire1 (spire type actin nucleation factor 1)	1	75.1	35.6	inactive
Spire1 (spire type actin nucleation factor 1)	2	38	43.3	inactive
Spire1 (spire type actin nucleation factor 1)	3	23.4	33.8	inactive
Vmn1r205 (vomeronasal 1 receptor 205)	1	53.6	59.5	inactive
Vmn1r205 (vomeronasal 1 receptor 205)	2	46.1	42.2	inactive
Vmn1r205 (vomeronasal 1 receptor 205)	3	106	93.9	inactive
